Measured values taken from article PMC7864571.
Like-named read-outs stand apart in the source and are kept apart here. No constants are given. Whether binding was seen depends on the method and setting. Binding seen in cells or lysates may run through a third protein. Some results given as binding are weak or reduced against the parent protein; the word gives no strength.

T1: NXF1, endogenous (mRNA export receptor) (human (endogenous in 293T)) (UniProt Q9UBU9)
T1 sequence: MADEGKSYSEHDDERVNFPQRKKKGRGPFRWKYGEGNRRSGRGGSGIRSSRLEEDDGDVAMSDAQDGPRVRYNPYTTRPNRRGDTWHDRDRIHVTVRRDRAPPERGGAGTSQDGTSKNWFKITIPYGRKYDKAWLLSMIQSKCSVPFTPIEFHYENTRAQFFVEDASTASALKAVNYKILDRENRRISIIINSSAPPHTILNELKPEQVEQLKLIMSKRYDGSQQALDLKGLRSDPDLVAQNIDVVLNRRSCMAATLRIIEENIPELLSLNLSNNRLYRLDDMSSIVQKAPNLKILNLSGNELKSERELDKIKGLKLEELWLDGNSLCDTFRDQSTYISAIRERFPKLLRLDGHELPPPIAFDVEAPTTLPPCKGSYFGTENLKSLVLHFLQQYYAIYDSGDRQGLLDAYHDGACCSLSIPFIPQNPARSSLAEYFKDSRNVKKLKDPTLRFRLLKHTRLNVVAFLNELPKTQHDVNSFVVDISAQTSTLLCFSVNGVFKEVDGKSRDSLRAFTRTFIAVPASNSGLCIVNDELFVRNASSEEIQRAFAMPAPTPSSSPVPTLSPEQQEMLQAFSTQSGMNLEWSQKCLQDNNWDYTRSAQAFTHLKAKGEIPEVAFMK

B1: THOC6, endogenous (protein, UniProt Q86W42 1-341)
chain: MERAVPLAVPLGQTEVFQALQRLHMTIFSQSVSPCGKFLAAGNNYGQIAIFSLSSALSSEAKEESKKPVVTFQAHDGPVYSMVSTDRHLLSAGDGEVKAWLWAEMLKKGCKELWRRQPPYRTSLEVPEINALLLVPKENSLILAGGDCQLHTMDLETGTFTRVLRGHTDYIHCLALRERSPEVLSGGEDGAVRLWDLRTAKEVQTIEVYKHEECSRPHNGRWIGCLATDSDWMVCGGGPALTLWHLRSSTPTTIFPIRAPQKHVTFYQDLILSAGQGRCVNQWQLSGELKAQVPGSSPGLLSLSLNQQPAAPECKVLTAAGNSCRVDVFTNLGYRAFSLSF
B2: THOC3, endogenous (protein, UniProt Q96J01 1-351)
chain: MAVPAAAMGPSALGQSGPGSMAPWCSVSSGPSRYVLGMQELFRGHSKTREFLAHSAKVHSVAWSCDGRRLASGSFDKTASVFLLEKDRLVKENNYRGHGDSVDQLCWHPSNPDLFVTASGDKTIRIWDVRTTKCIATVNTKGENINICWSPDGQTIAVGNKDDVVTFIDAKTHRSKAEEQFKFEVNEISWNNDNNMFFLTNGNGCINILSYPELKPVQSINAHPSNCICIKFDPMGKYFATGSADALVSLWDVDELVCVRCFSRLDWPVRTLSFSHDGKMLASASEDHFIDIAEVETGDKLWEVQCESPTFTVAWHPKRPLLAFACDDKDGKYDSSREAGTVKLFGLPNDS

How the values were obtained:
Experiment in all cases: co-IP
[1] = target: 3xFlag-Nsp1 (SARS-CoV-2 Nsp1) (SARS-CoV-2) (UniProt P0DTD1)
[2] = target: T1, NXF1, endogenous (mRNA export receptor) (human (endogenous in 293T))
[3] = target: 3xFlag-Nsp1 (SARS-CoV-2 Nsp1) (SARS-CoV-2) (UniProt P0DTD1); remark: listed apart in the source

Molecule	binding [1]	further results
mRNA export factor/RNA helicase UAP56 (DDX39B), endogenous (from UniProt Q13838 1-428)	binds	–
GANP (germinal center-associated nuclear protein), endogenous (from UniProt O60318 1-1980)	no binding	–
B1	–	binding [2]: binds
B2	–	binding [3]: no binding
